# Where a name gives a salt, the structure may show the parent alone. Some of the results follow. Single values are uncertain here, since repeats match poorly.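 A first-round screen of about ten thousand compounds sought those raising reporter output, using human embryonic kidney cells briefly transfected with a plasmid carrying a Renilla luciferase gene driven by the HSV-TK promoter.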
# Test system: HEK 293FT
# Test: log relative Renilla luciferase luminescence (reporter expression vs reference, reference not stated) (log (base not stated)); higher = higher recombinant reporter expression
# Details: 10 µM; time after transfection 48 h
row,SMILES,log
1,CNCC[C@H](Oc1cccc2ccccc12)c1cccs1 [duloxetine hydrochloride],0.0409
2,CC(=O)c1ccc2c(c1)N(CCCN1CCC(CCO)CC1)c1ccccc1S2 [piperacetazine],0.0782
3,CO[C@@]1(NC(=O)Cc2cccs2)C(=O)N2C(C(=O)O)=C(COC(N)=O)CS[C@@H]21 [cefoxitin sodium],0.131
4,CC(C)CCCC(C)C1CCC2C3CCC4CCCCC4(C)C3CCC12C (configuration not stated) [cholestane],-0.00488
5,COc1cc2c(cc1OC)C(=O)C(CC1CCN(Cc3ccccc3)CC1)C2 (configuration not stated) [donepezil hydrochloride],0.0261
6,CCCCC(CC)CN1CN(CC(CC)CCCC)CC(C)(N)C1 (configuration not stated) [hexetidine],-0.107
7,COc1ccc(C2C(=O)c3ccccc3C2=O)cc1 [anisindione],0.0313
8,Cc1cccc(C)c1NC(=O)C1CCCCN1C (configuration not stated) [mepivacaine hydrochloride],0.194
9,CN(C)c1ccc2nc3ccc(=[N+](C)C)cc-3sc2c1 [methylene blue],-0.965
10,COc1cc(/C=C/C(=O)N2CCC=CC2=O)cc(OC)c1OC [piplartine],-1.34
11,N#Cc1ccc2[nH]cc(CCCCN3CCN(c4ccc5oc(C(N)=O)cc5c4)CC3)c2c1 [vilazodone hydrochloride],-0.0134
12,COc1cc(OC)c2c(OC)c(-c3ccc4c(c3)OCO4)c(=O)oc2c1 [derrusnin],0.0777
13,CN1C(C(=O)Nc2ccccn2)=C(O)c2sccc2S1(=O)=O [tenoxicam],0.0728
14,Cc1ncc([N+](=O)[O-])n1CC(O)CCl (configuration not stated) [ornidazole],0.0118
15,C[C@]12CC[C@H]3C(=CCc4cc(O)ccc43)[C@@H]1CCC2=O [equilin],-0.128
16,C[C@]12C=CC(=O)C=C1CC[C@@H]1[C@@H]2[C@@H](O)C[C@@]2(C)[C@H]1CC[C@]2(O)C(=O)COP(=O)(O)O [prednisolone sodium phosphate],-0.0938
17,N=C(N)N [guanidine hydrochloride],0.0893
18,Cc1c(C(N)=O)cc([N+](=O)[O-])cc1[N+](=O)[O-] [dinitolmide],0.00265
19,C=C[C@H]1CN2CC[C@H]1C[C@@H]2[C@@H](O)c1ccnc2ccc(OC)cc12 [quinidine gluconate],0.00864
20,CS(=O)(=O)c1ccc(C2=C(c3ccccc3)C(=O)OC2)cc1 [rofecoxib],0.0569
21,Cn1c(=O)c2[nH]cnc2n(C)c1=O [oxtriphylline],0.111
22,Oc1ccc(Cl)c2c1CCC2 [chlorindanol],-0.0185
23,"COc1ccc2c(c1OC)OC[C@@H](c1ccc(OC)c(OC)c1OC)C2 [duartin, dimethyl ether]",0.134
24,C#C[C@]1(O)CC[C@H]2[C@@H]3CCc4cc(OC5CCCC5)ccc4[C@H]3CC[C@@]21C [quinestrol],-0.121
25,Cc1ccnc2c1NC(=O)c1cccnc1N2C1CC1 [nevirapine],0.0767
26,CN(C)CCC=C1c2ccccc2CCc2ccccc21 [amitriptyline hydrochloride],-0.0177

row,SMILES,log
1,Cc1[nH]c(=O)c(C#N)cc1-c1ccncc1 [milrinone],-1.4
2,COC(=O)C[C@H]1C(C)(C)C(=O)[C@@H]2CC3=C(CC[C@]4(C)C3=CC(=O)O[C@H]4c3ccoc3)[C@@]1(C)C2=O [carapin-8(9)-ene],-0.047
3,O=C(Nc1ccccc1)c1ccccc1O [salicylanilide],-1.61
4,NS(=O)(=O)c1cc2c(cc1Cl)N=CNS2(=O)=O [chlorothiazide],-0.0868
5,CNS(=O)(=O)Cc1ccc2[nH]cc(CCN(C)C)c2c1 [sumatriptan succinate],-0.105
6,CN[C@H](CC(C)C)C(=O)N[C@H]1C(=O)N[C@@H](CC(N)=O)C(=O)N[C@H]2C(=O)N[C@H]3C(=O)N[C@H](C(=O)N[C@H](C(=O)O)c4cc(O)cc(O)c4-c4cc3ccc4O)[C@H](O)c3ccc(c(Cl)c3)Oc3cc2cc(c3O[C@@H]2O[C@H](CO)[C@@H](O)[C@H](O)[C@H]2O[C@H]2C[C@](C)(N)[C@H](O)[C@H](C)O2)Oc2ccc(cc2Cl)[C@H]1O [vancomycin hydrochloride],-0.0398
7,O=C(CCCl)NCc1ccccc1 [beclamide],-0.0346
8,CCC(CCC(C)C1CCC2C3CCC4CC(O)CCC4(C)C3CCC12C)C(C)C (configuration not stated) [fucostanol],0.185
9,NC(=O)c1ncn([C@@H]2O[C@H](CO)[C@@H](O)[C@H]2O)n1 [ribavirin],-0.0137
10,C#CCCCCCCCCCCCC(O)CC(O)CO.C=CCCCCCCCCCCCC(O)CC(O)CO (configuration not stated) [avocatin b],0.0168
11,CCOC(=O)[C@H](CCc1ccccc1)N[C@@H](C)C(=O)N1[C@H](C(=O)O)C[C@@H]2CCC[C@@H]21 [ramipril],0.0773
12,CC1=CC2C(C(C)C)CCC(C)(O)C2CC1 (configuration not stated) [cadin-4-en-10-ol],-0.0238
13,CC(C)COCC(CN(Cc1ccccc1)c1ccccc1)N1CCCC1 (configuration not stated) [bepridil hydrochloride],0.127
14,O=C(O)c1cc(=O)c2ccccc2o1 [chromocarb],0.0409
15,"COc1ccc2oc(-c3ccccc3)c(OC)c(=O)c2c1 [3,6-dimethoxyflavone]",-0.0136
16,COc1ccc2ccc(=O)oc2c1 [herniarin],-0.0238
17,NS(=O)(=O)c1cc(C(=O)O)c(NCc2ccco2)cc1Cl [furosemide],0.151
18,Cc1cc(C2CCCCC2)n(O)c(=O)c1 [ciclopirox olamine],-0.919
19,S=C1SCN(Cc2ccccc2)CN1Cc1ccccc1 [sulbentine],-1.44
20,"CCOc1ccc(C(=O)c2ccc(OC)c(O)c2O)cc1 [2,3-dihydroxy-4-methoxy-4'-ethoxybenzophenone]",0.196
21,COc1ccc(Cc2cnc(N)nc2N)cc1OC [diaveridine],-1.44
22,N=C(N)NC(=O)c1nc(Cl)c(N)nc1N [amiloride hydrochloride],-0.0675
23,CCCCOC(=O)c1ccc(N)cc1 [butamben],-0.174
24,O=C(Nc1ccc(C(=O)O)c(O)c1)c1ccccc1 [benzoylpas],0.0848
25,CC[C@H]1OC(=O)[C@H](C)[C@@H](O[C@H]2C[C@@](C)(OC)[C@@H](O)[C@H](C)O2)[C@H](C)[C@@H](O[C@@H]2O[C@H](C)C[C@H](N(C)C)[C@H]2O)[C@](C)(OC)C[C@@H](C)C(=O)[C@H](C)[C@@H](O)[C@]1(C)O [clarithromycin],0.174
26,C[C@H]1COC2=C1C(=O)C(=O)c1c2ccc2c1CCCC2(C)C [cryptotanshinone],-0.0931

# In a second layout: results already given.
row	SMILES	log
17	NS(=O)(=O)c1cc(C(=O)O)c(NCc2ccco2)cc1Cl [furosemide]	0.151
18	Cc1cc(C2CCCCC2)n(O)c(=O)c1 [ciclopirox olamine]	-0.919
19	S=C1SCN(Cc2ccccc2)CN1Cc1ccccc1 [sulbentine]	-1.44

# Next part

row,SMILES,log
1,CCCCC1=NC2(CCCC2)C(=O)N1Cc1ccc(-c2ccccc2-c2nnn[nH]2)cc1 [irbesartan],-0.206
2,CCNC(=O)/C=C/c1cccc(Br)c1 [cinromide],-0.00497
3,C=CCCCCCCCCC(=O)[O-].C=CCCCCCCCCC(=O)[O-].[Zn+2] [zinc undecylenate],0.16
4,COC(=O)Nc1nc2cc([S+]([O-])c3ccccc3)ccc2[nH]1 (configuration not stated) [oxfendazole],0.131
5,O=c1cc(-c2ccccc2)oc2cccc(O)c12 [primuletin],0.0673
6,CNc1ccccc1C(=O)N1CCc2c([nH]c3ccccc23)C1=O [rhetsinine],-0.0193
7,COc1ccc2c(=O)c(CC(=O)O)coc2c1 [anhydrobrazilic acid],-0.0235
8,COc1ccccc1OCC(O)COC(N)=O (configuration not stated) [methocarbamol],-0.0916
9,Nc1ccn([C@@H]2CS[C@H](CO)O2)c(=O)n1 [lamivudine],0.0881
10,Cc1cc(N)c2ccccc2[n+]1CCCCCCCCCC[n+]1c(C)cc(N)c2ccccc21 [dequalinium chloride],-0.0366
11,CO/N=C(\C(=O)N[C@@H]1C(=O)N2C(C(=O)OC(C)OC(C)=O)=C(COC(N)=O)CS[C@H]12)c1ccco1 (some centres not stated) [cefuroxime axetil],-0.176
12,"CC1(C)CC2C1CCC1(C)OC2(C)CCC1O (configuration not stated) [3,7-epoxycaryophyllan-6-ol]",0.025
13,CN(C)CC(c1ccc(O)cc1)C1(O)CCCCC1 (configuration not stated) [desvenlafaxine succinate],-0.0614
14,NC(=O)[C@@H]1CCCN1C(=O)[C@H](Cc1c[nH]cn1)NC(=O)[C@@H]1CCC(=O)N1 [protirelin],0.0956
15,COc1c(N2CCNC(C)C2)c(F)cc2c(=O)c(C(=O)O)cn(C3CC3)c12 (configuration not stated) [gatifloxacin],0.0698
16,N[C@@H](C(=O)O)[C@@H](O)[C@H](O)[C@H](O)CO [glucosaminic acid],0.0151
17,O=C(c1ccccc1)c1ccc2n1CCC2C(=O)O (configuration not stated) [ketorolac tromethamine],0.159
18,OCc1ccccc1O [salicyl alcohol],0.00789
19,CN1Cc2c(N)cccc2C(c2ccccc2)C1 (configuration not stated) [nomifensine maleate],-0.0596
20,FC(F)(F)COCC(F)(F)F [flurothyl],-0.073
21,CCN[C@@H]1C[C@H](N)[C@@H](O[C@H]2OC(CN)=CC[C@H]2N)[C@H](O)[C@H]1O[C@H]1OC[C@](C)(O)[C@H](NC)[C@H]1O [netilmicin sulfate],-0.105
22,CC(C)(O)c1ccccc1CC[C@@H](SCC1(CC(=O)O)CC1)c1cccc(/C=C/c2ccc3ccc(Cl)cc3n2)c1 [montelukast sodium],-0.0331
23,C=C(C)[C@@H]1CC=C(CO)CC1 [perillyl alcohol],0.0749
24,COC1=C(OC)C(=O)C(C/C=C(\C)CC/C=C(\C)CC/C=C(\C)CC/C=C(/C)CC/C=C(\C)CC/C=C(\C)CC/C=C(\C)CC/C=C(\C)CC/C=C(\C)CCC=C(C)C)=C(C)C1=O [ubidecareneone],0.0695
25,CC(=O)Oc1cccc(C)c1 [meta-cresyl acetate],-0.165

# An excerpt taken from the entries so far:
row,SMILES,log
24,COC1=C(OC)C(=O)C(C/C=C(\C)CC/C=C(\C)CC/C=C(\C)CC/C=C(/C)CC/C=C(\C)CC/C=C(\C)CC/C=C(\C)CC/C=C(\C)CC/C=C(\C)CCC=C(C)C)=C(C)C1=O [ubidecareneone],0.0695
25,CC(=O)Oc1cccc(C)c1 [meta-cresyl acetate],-0.165

# From the supplement of paper PMC7024190
